Assay results as given in patent US10980233B2, “Oxadiazole compound and use thereof as pesticides” (Sumitomo Chemical Company, Limited, priority 2016, dated 2021).
Some entries share one result that the patent states for a list of compounds. At least one compound was matched to its structure with a doubt left.

Experiments:
Phakopsora pachyrhizi [1] = assay: Test Example 4: Test for controlling soybean rust on soybean (spray after inoculation); type: in vivo; conditions: 200 ppm foliar spray (Formulation example 6) three days after inoculation; soybean cultivar Kurosengoku; examined after eight days
Phakopsora pachyrhizi [2] = assay: Test Example 5: Test for controlling soybean rust on soybean (spray before inoculation); type: in vivo; conditions: 200 ppm foliar spray (Formulation example 6); inoculation four days after the application; soybean cultivar Kurosengoku
Microsphaera diffusa [3] = assay: Test Example 15: Test for controlling powdery mildew on soybean (spray before inoculation); type: in vivo; conditions: 200 ppm foliar spray (Formulation example 6); inoculation one day after the application; soybean cultivar Kurosengoku
Septoria tritici [4] = assay: Test Example 1: Test for controlling Septoria tritici (microtiter plate growth); type: cell-based; conditions: 1500 ppm in dimethyl sulfoxide, 1 μL per well + 150 μL PDB medium; 18° C., five days; absorbance at 550 nm
Microsphaera diffusa [5] = assay: Test Example 14: Test for controlling powdery mildew on soybean (spray after inoculation); type: in vivo; conditions: 200 ppm foliar spray (Formulation example 6) two days after inoculation; soybean cultivar Kurosengoku; examined after nine days
Colletotrichum truncatum = assay: Test Example 3: Test for controlling Colletotrichum truncatum (microtiter plate growth); type: cell-based; conditions: 1500 ppm in dimethyl sulfoxide, 1 μL per well + 150 μL PDB medium; 18° C., four days; absorbance at 550 nm
Septoria tritici [6] = assay: Test Example 6: Test for controlling Septoria leaf blotch on wheat; type: in vivo; conditions: 200 ppm foliar spray (Formulation example 6); inoculation four days after the application; wheat cultivar Apogee
Rhynchosporium secalis = assay: Test Example 10: Test for controlling barley scald on barley; type: in vivo; conditions: 200 ppm foliar spray (Formulation example 6); inoculation one day after the application; barley cultivar Nishinohoshi
Septoria tritici [7] = assay: Test Example 11: Test for controlling Septoria leaf blotch on wheat; type: in vivo; conditions: 500 ppm foliar spray (Formulation example 6); inoculation four days after the application; wheat cultivar Apogee

| SMILES | lesion area as compared to the lesion area in the untreated group of soybeans (Phakopsora pachyrhizi [1]) [%] | lesion area as compared to the lesion area in the untreated group of soybeans (Phakopsora pachyrhizi [2]) [%] | lesion area as compared to the lesion area in the untreated group of soybeans (Microsphaera diffusa [3]) [%] | degree of growth of Septoria tritici as compared to the degree of growth in the untreated group (Septoria tritici [4]) [%] | lesion area as compared to the lesion area in the untreated group of soybeans (Microsphaera diffusa [5]) [%] | degree of growth of Colletotrichum truncatum as compared to the degree of growth in the untreated group (Colletotrichum truncatum) [%] | lesion area as compared to the lesion area in the untreated group of wheat (Septoria tritici [6]) [%] | lesion area as compared to the lesion area in the untreated group of barley (Rhynchosporium secalis) [%] | lesion area as compared to the lesion area in the untreated group of wheat (Septoria tritici [7]) [%] |
| --- | --- | --- | --- | --- | --- | --- | --- | --- | --- |
| N#CCON=C(N)c1ccc(-c2noc(C(F)(F)F)n2)cc1 [compound 11] | ≤ 30 | ≤ 30 | ≤ 30 |  |  |  |  |  |  |
| CNC(=NOCC#N)c1ccc(-c2noc(C(F)(F)F)n2)cc1 [compound 13] | ≤ 30 | ≤ 30 | ≤ 30 | ≤ 50 | ≤ 30 |  |  |  |  |
| ON=C(c1ccccc1)c1ccc(-c2noc(C(F)(F)F)n2)cc1 [compound 24] | ≤ 30 | ≤ 30 |  | ≤ 50 | ≤ 30 | ≤ 50 | ≤ 30 | ≤ 30 |  |
| CN(Cc1ccccc1)C(=NO)c1ccc(-c2noc(C(F)(F)F)n2)cc1 [compound 34] | ≤ 30 | ≤ 30 | ≤ 30 | ≤ 50 | ≤ 30 |  | ≤ 30 |  | ≤ 30 |
| ON=C(NCc1cccnc1)c1ccc(-c2noc(C(F)(F)F)n2)cc1 [compound 35] | ≤ 30 | ≤ 30 | ≤ 30 | ≤ 50 | ≤ 30 |  | ≤ 30 |  | ≤ 30 |
